Our source for the binding values is paper PMC13436963.

In assay [1] the target is EGFP-tagged full-length Drosophila Notch (Drosophila melanogaster) (UniProt P07207). Kind of assay: co-IP; luciferase-coupled co-immunoprecipitation: Notch–EGFP precipitated with GFP-Trap beads (1 hr, 4 °C) from lysate of S2 cells co-expressing LNR–Luciferase; co-precipitated luciferase activity normalised to lysate luciferase; lysis buffer 100 mM Tris-HCl pH 7.5, 150 mM NaCl, 1% Tergitol 15 S-9, 1 mM CaCl2.

Assay [2] has as its target Drosophila Notch LNR domain fused to split firefly luciferase fragments (LNR–NLuc and LNR–CLuc) (Drosophila melanogaster) (UniProt P07207). Kind of assay: split reporter; split firefly luciferase complementation: 50 ng each of LNR–NLuc and LNR–CLuc co-transfected into S2 cells; firefly signal normalised to Renilla luciferase.
Assay [3] addresses Drosophila Notch LNR domain F1563A fused to split firefly luciferase fragments (Drosophila melanogaster) (UniProt P07207). Described as above.
The target in assay [4] is Drosophila Notch LNR domain H1570A fused to split firefly luciferase fragments (Drosophila melanogaster) (UniProt P07207). The assay is described as above.

Results are given in words; binding and its absence hold for the method and conditions named. In cells and extracts the contact can be indirect. Some binding calls cover weakened binding; strength is not graded here. Where a sequence is shown, tags or fusion partners need not be part of it.

B1: luciferase-tagged Drosophila Notch LNR domain (residues G1465 to V1600) (domain or fragment, UniProt P07207 1465-1600)
chain: GSGNDRYAADLEQQRAMCDKRGCTEKQGNGICDSDCNTYACNFDGNDCSLGINPWANCTANECWNKFKNGKCNEECNNAACHYDGHDCERKLKSCDSLFDAYCQKHYGDGFCDYGCNNAECSWDGLDCENKTQSPV
Turning to B1, the binding result in assay [1] is “binds”.

B2: luciferase-tagged Drosophila Notch LNR domain (G1465 to V1600) H1570A (domain or fragment, UniProt P07207 1465-1600)
chain: GSGNDRYAADLEQQRAMCDKRGCTEKQGNGICDSDCNTYACNFDGNDCSLGINPWANCTANECWNKFKNGKCNEECNNAACHYDGHDCERKLKSCDSLFDAYCQKAYGDGFCDYGCNNAECSWDGLDCENKTQSPV
For B2, in assay [1], the binding entry is listed as “binds”.

B3: luciferase-tagged Drosophila Notch LNR domain (G1465 to V1600) F1563A (domain or fragment, UniProt P07207 1465-1600)
chain: GSGNDRYAADLEQQRAMCDKRGCTEKQGNGICDSDCNTYACNFDGNDCSLGINPWANCTANECWNKFKNGKCNEECNNAACHYDGHDCERKLKSCDSLADAYCQKHYGDGFCDYGCNNAECSWDGLDCENKTQSPV
As for B3, the binding result in assay [1] is given as “binds”.

B4: Drosophila Notch LNR domain fused to split firefly luciferase fragments (LNR–NLuc and LNR–CLuc) (domain or fragment, UniProt P07207 1465-1600)
chain: GSGNDRYAADLEQQRAMCDKRGCTEKQGNGICDSDCNTYACNFDGNDCSLGINPWANCTANECWNKFKNGKCNEECNNAACHYDGHDCERKLKSCDSLFDAYCQKHYGDGFCDYGCNNAECSWDGLDCENKTQSPV
In the case of B4, the binding result in assay [2] is “binds”.

B5: Drosophila Notch LNR domain F1563A fused to split firefly luciferase fragments (domain or fragment, UniProt P07207 1465-1600)
chain: GSGNDRYAADLEQQRAMCDKRGCTEKQGNGICDSDCNTYACNFDGNDCSLGINPWANCTANECWNKFKNGKCNEECNNAACHYDGHDCERKLKSCDSLADAYCQKHYGDGFCDYGCNNAECSWDGLDCENKTQSPV
Take B5: the binding entry in assay [3] is “binds”.

B6: Drosophila Notch LNR domain H1570A fused to split firefly luciferase fragments (domain or fragment, UniProt P07207 1465-1600)
chain: GSGNDRYAADLEQQRAMCDKRGCTEKQGNGICDSDCNTYACNFDGNDCSLGINPWANCTANECWNKFKNGKCNEECNNAACHYDGHDCERKLKSCDSLFDAYCQKAYGDGFCDYGCNNAECSWDGLDCENKTQSPV
For the molecule B6, the binding entry in assay [4] is reported as “binds”.
